Assay results: the supplement of paper PMC10735217
Counter-ions that a name gives are not always drawn. Some of the results follow. This data set is noisy: repeats of one test often differ as much as different tests do.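 Human kidney-derived cells stably carry a construct in which eight TEAD-binding elements drive luciferase, measured by luminescence in a drug-repurposing library screen. A hit is any compound whose signal exceeds the plate mean by more than five robust Z scores.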

System: HEK293A TEAD-LUC reporter
Assay: TEAD-luciferase reporter activity (YAP activation), robust Z score vs plate; higher = stronger YAP/TEAD activation
Settings: 24 h

SMILES | TEAD-luciferase reporter activity (compound concentration: 2 uM) | TEAD-luciferase reporter activity (compound concentration: 200 nM) | TEAD-luciferase reporter activity (compound concentration: 10 uM)
C[C@]12CC[C@@H]3c4ccc(O)cc4CC[C@H]3[C@@H]1CC[C@@H]2OC(=O)CCc1ccccc1 [Estradiol 17-phenylpropionate] | inactive: -0.538 | – | –
C[C@]12CC[C@@H]3c4ccc(O)cc4CC[C@H]3[C@@H]1CC[C@@H]2OC(=O)CCc1ccccc1 | – | inactive: 0.0417 | inactive: 0.599
Cc1cc(C)c(CN2CCCC23Cc2ccccc2CNC3=O)c(C)c1 (configuration not stated) | – | inactive: -1.7 | inactive: -0.87
CN(C(=O)CCCOc1ccc2c(c1)CN1CC(=O)NC1=N2)C1CCCCC1 [lixazi] | inactive: -1.14 | inactive: -0.79 | inactive: -0.217
O=C(NCCC1CCCCC1)c1c[nH]c2ncccc12 | – | inactive: 1.3 | inactive: -0.0472
CC(C)(C)NCC(O)c1ccc(O)c(CS(C)(=O)=O)c1 (configuration not stated) | inactive: -0.451 | inactive: -1.12 | inactive: -0.617
CN(C)c1ccc(O)c2c1CC1CC3C(N(C)C)C(O)=C(C(N)=O)C(=O)C3(O)C(O)=C1C2=O (configuration not stated) [minocycline, Foamix] | inactive: -0.523 | inactive: -0.786 | inactive: 1.26
CN(C1CCN(c2ccc(C(=O)N3C[C@H]4CC[C@H](CC4)C3)cc2)C1)S(=O)(=O)Cc1ccccc1 (some centres not stated) | inactive: -1.13 | inactive: 0.0101 | inactive: 0.416
O=P(O)(O)C(O)(Cn1ccnc1)P(=O)(O)O [Zoledronic Acid (Zoledronate)] | – | inactive: -1.35 | inactive: -0.447
O=P(O)(O)C(O)(Cn1ccnc1)P(=O)(O)O [zoledronic acid] | inactive: -2.05 | – | –
O=C(O)Cc1ccc(OCCNC[C@H](O)c2ccccc2)cc1 [Talibegron hydrochloride] | inactive: -0.842 | inactive: -0.688 | inactive: 1.69
COc1cccc2c(N3CCc4ccccc4C3C)nc(Nc3ccc(F)cc3C)nc12 (configuration not stated) | inactive: -1.03 | inactive: -1.29 | inactive: -0.529
Cc1ncc(CO)c(CN)c1O [pyridoxamine dihydrochloride] | inactive: -0.0193 | inactive: 1.76 | inactive: -1.15
CCc1ccc(C[C@@H]2NC(=O)CCSCC[C@@H](C(=O)N3CCC[C@H]3C(=O)N[C@@H](CC(C)C)C(=O)NCC(N)=O)NC(=O)[C@H](CC(N)=O)NC(=O)[C@H](CCC(N)=O)NC(=O)[C@H]([C@@H](C)CC)NC2=O)cc1 [nacartocin] | inactive: -0.672 | inactive: -0.498 | inactive: -0.973
CC(=O)N(C)Cc1c(-c2ccc(Cl)cc2)nc2ccccn12 | inactive: -0.527 | inactive: -0.409 | inactive: -0.553

Another view of some results above.
SMILES	TEAD-luciferase reporter activity (compound concentration: 2 uM)	TEAD-luciferase reporter activity (compound concentration: 200 nM)	TEAD-luciferase reporter activity (compound concentration: 10 uM)
C[C@]12CC[C@@H]3c4ccc(O)cc4CC[C@H]3[C@@H]1CC[C@@H]2OC(=O)CCc1ccccc1	–	inactive: 0.0417	inactive: 0.599
O=P(O)(O)C(O)(Cn1ccnc1)P(=O)(O)O [zoledronic acid]	inactive: -2.05	–	–
Cc1ncc(CO)c(CN)c1O [pyridoxamine dihydrochloride]	inactive: -0.0193	inactive: 1.76	inactive: -1.15
